# Results: the supplement of paper PMC8728848
# Some of the results follow.
# B1: SRS2 (Toxoplasma gondii), O15695 (protein)
# chain: MATRASLARQKTGAACLAVLTASPSVVAAKPWKRWVGVSVILASAFAVGVSAGPPYRYEPEKFTCRPKKGILSQWVSLLYQVQHNITFACEEATPVPTTLISEEHGLMVCAENMTPEECEANPAPLSAFLPGATKEWVTGDSVLTGLKISVPESQYPANAKSFRVGCRHNTKTGNTCMLTIHVEPRDPAVERQEARCSYTENSTLPKIFVTKDSNTMTLACGPHGAPMPESYTENYCSTPDTCDEKPFTSVIPGYLSKWFFGDPKSPLGARVRIPPEQIPSSPQINYFGCTGPTEGEGPKYNCTVPVPLGGGDPSEGSRPGGGSGGGKRGGGQGGGGSLAGFDFRQGSARHSLPSRMALSASALLAMTALAY
# Columns and labels:
# Assay in all cases: glycan array binding signal (z-score within array); higher = stronger binding
# Details in all cases: glycan notation: IUPAC condensed, linker removed
# [1] = target: Gal(b1-4)GlcNAc(b1-6)[Gal(b1-3)]GalNAc
# Outline: (§1)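 Arrays were curated from the Consortium for Functional Glycomics database, 3228 in total, and kept only where the protein sequence was available. Binding is expressed as a within-array Z-score. This score was averaged across arrays of the same protein sequence at different concentrations or buffers and across linkers, and negative values can be read as non-binding.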
# Gal3S(b1-3)GalNAc = target: Gal3S(b1-3)GalNAc
# Outline: as §1
# Gal3S(b1-3)GlcNAc = target: Gal3S(b1-3)GlcNAc
# Outline: as §1
# [2] = target: Gal3S(b1-3)[Fuc(a1-4)]GlcNAc
# Outline: as §1
# Gal3S(b1-4)Glc = target: Gal3S(b1-4)Glc
# Outline: as §1
# Gal3S(b1-4)Glc6S = target: Gal3S(b1-4)Glc6S
# Outline: as §1
# Gal3S(b1-4)GlcNAc = target: Gal3S(b1-4)GlcNAc
# Outline: as §1
# Gal3S(b1-4)GlcNAc6S = target: Gal3S(b1-4)GlcNAc6S
# Outline: as §1
# [3] = target: Gal3S(b1-4)[Fuc(a1-3)]Glc
# Outline: as §1
# [4] = target: Gal3S(b1-4)[Fuc(a1-3)]Glc6S
# Outline: as §1
# Gal3S4S(b1-4)GlcNAc = target: Gal3S4S(b1-4)GlcNAc
# Outline: as §1
# Gal3S6S(b1-4)GlcNAc = target: Gal3S6S(b1-4)GlcNAc
# Outline: as §1
# Gal3S6S(b1-4)GlcNAc6S = target: Gal3S6S(b1-4)GlcNAc6S
# Outline: as §1
# Gal4S(b1-4)GlcNAc = target: Gal4S(b1-4)GlcNAc
# Outline: as §1
# Gal4S6S(b1-4)GlcNAc = target: Gal4S6S(b1-4)GlcNAc
# Outline: as §1
# Gal6S(b1-4)Glc = target: Gal6S(b1-4)Glc
# Outline: as §1
# Gal6S(b1-4)Glc6S = target: Gal6S(b1-4)Glc6S
# Outline: as §1
# Gal6S(b1-4)GlcNAc = target: Gal6S(b1-4)GlcNAc
# Outline: as §1
# Gal6S(b1-4)GlcNAc6S = target: Gal6S(b1-4)GlcNAc6S
# Outline: as §1
# GalNAc(a1-3)Gal = target: GalNAc(a1-3)Gal
# Outline: as §1
# GalNAc(a1-3)GalNAc = target: GalNAc(a1-3)GalNAc
# Outline: as §1
# [5] = target: GalNAc(a1-3)GalNAc(a1-3)Gal(a1-4)Gal(b1-4)GlcNAc
# Outline: as §1
# GalNAc(b1-3)Gal = target: GalNAc(b1-3)Gal
# Outline: as §1
# [6] = target: GalNAc(b1-3)Gal(a1-4)Gal(b1-4)GlcNAc
# Outline: as §1
# [7] = target: GalNAc(b1-3)Gal(a1-4)Gal(b1-4)GlcNAc(b1-3)Gal(b1-4)Glc
# Outline: as §1
# [8] = target: GalNAc(b1-3)Gal(a1-6)Gal(b1-4)Glc
# Outline: as §1
# GalNAc(b1-3)GalNAc = target: GalNAc(b1-3)GalNAc
# Outline: as §1
# GalNAc(b1-4)GlcNAc = target: GalNAc(b1-4)GlcNAc
# Outline: as §1
# [9] = target: GalNAc(b1-4)GlcNAc(b1-2)Man(a1-3)[GalNAc(b1-4)GlcNAc(b1-2)Man(a1-6)]Man(b1-4)GlcNAc(b1-4)GlcNAc
# Outline: as §1
# Glc(a1-4)Glc = target: Glc(a1-4)Glc
# Outline: as §1
# Glc(a1-6)Glc(a1-6)Glc = target: Glc(a1-6)Glc(a1-6)Glc
# Outline: as §1
# Glc(b1-4)Glc = target: Glc(b1-4)Glc
# Outline: as §1
# Glc(b1-6)Glc = target: Glc(b1-6)Glc
# Outline: as §1
# GlcA(b1-3)Gal = target: GlcA(b1-3)Gal
# Outline: as §1
# GlcA(b1-3)GlcNAc = target: GlcA(b1-3)GlcNAc
# Outline: as §1
# GlcA(b1-6)Gal = target: GlcA(b1-6)Gal
# Outline: as §1
# [10] = target: GlcNAc(a1-3)Gal(b1-4)GlcNAc
# Outline: as §1
# [11] = target: GlcNAc(a1-4)Gal(b1-3)GlcNAc
# Outline: as §1
binder,measurement,setting,value
B1,glycan array binding signal (z-score),[1],-0.16
same,glycan array binding signal (z-score),Gal3S(b1-3)GalNAc,0.398
same,glycan array binding signal (z-score),Gal3S(b1-3)GlcNAc,0.567
same,glycan array binding signal (z-score),[2],-0.213
same,glycan array binding signal (z-score),Gal3S(b1-4)Glc,-0.359
same,glycan array binding signal (z-score),Gal3S(b1-4)Glc6S,0.326
same,glycan array binding signal (z-score),Gal3S(b1-4)GlcNAc,0.347
same,glycan array binding signal (z-score),Gal3S(b1-4)GlcNAc6S,-0.041
same,glycan array binding signal (z-score),[3],0.734
same,glycan array binding signal (z-score),[4],2.13
same,glycan array binding signal (z-score),Gal3S4S(b1-4)GlcNAc,-0.703
same,glycan array binding signal (z-score),Gal3S6S(b1-4)GlcNAc,-0.057
same,glycan array binding signal (z-score),Gal3S6S(b1-4)GlcNAc6S,-0.126
same,glycan array binding signal (z-score),Gal4S(b1-4)GlcNAc,-0.196
same,glycan array binding signal (z-score),Gal4S6S(b1-4)GlcNAc,0.612
same,glycan array binding signal (z-score),Gal6S(b1-4)Glc,-0.689
same,glycan array binding signal (z-score),Gal6S(b1-4)Glc6S,0.237
same,glycan array binding signal (z-score),Gal6S(b1-4)GlcNAc,-0.385
same,glycan array binding signal (z-score),Gal6S(b1-4)GlcNAc6S,-1.07
same,glycan array binding signal (z-score),GalNAc(a1-3)Gal,-0.547
same,glycan array binding signal (z-score),GalNAc(a1-3)GalNAc,0.067
same,glycan array binding signal (z-score),[5],0.55
same,glycan array binding signal (z-score),GalNAc(b1-3)Gal,-0.009
same,glycan array binding signal (z-score),[6],-0.172
same,glycan array binding signal (z-score),[7],-0.134
same,glycan array binding signal (z-score),[8],-0.675
same,glycan array binding signal (z-score),GalNAc(b1-3)GalNAc,0.471
same,glycan array binding signal (z-score),GalNAc(b1-4)GlcNAc,-0.148
same,glycan array binding signal (z-score),[9],0.894
same,glycan array binding signal (z-score),Glc(a1-4)Glc,-0.767
same,glycan array binding signal (z-score),Glc(a1-6)Glc(a1-6)Glc,-0.82
same,glycan array binding signal (z-score),Glc(b1-4)Glc,0.048
same,glycan array binding signal (z-score),Glc(b1-6)Glc,-0.375
same,glycan array binding signal (z-score),GlcA(b1-3)Gal,-0.149
same,glycan array binding signal (z-score),GlcA(b1-3)GlcNAc,-0.187
same,glycan array binding signal (z-score),GlcA(b1-6)Gal,0.072
same,glycan array binding signal (z-score),[10],-0.96
same,glycan array binding signal (z-score),[11],-0.995

# Quoted from above for reference:
binder,measurement,setting,value
B1,glycan array binding signal (z-score),GalNAc(b1-4)GlcNAc,-0.148
same,glycan array binding signal (z-score),[9],0.894
same,glycan array binding signal (z-score),Glc(a1-4)Glc,-0.767
same,glycan array binding signal (z-score),Glc(a1-6)Glc(a1-6)Glc,-0.82
same,glycan array binding signal (z-score),Glc(b1-4)Glc,0.048
same,glycan array binding signal (z-score),Glc(b1-6)Glc,-0.375
same,glycan array binding signal (z-score),GlcA(b1-3)Gal,-0.149
